Measurements: PubChem BioAssay AID743266 (National Center for Advancing Translational Sciences (NCATS), 2014)
Hit rate of the full screen: of about 410,000 compounds, about 310 (0.076%) were called active. The shares of active, inactive and inconclusive entries below differ from those in the screen. The call rests on the fitted dose curve; in most records, active means well fitted activation curve with a large enough effect; inconclusive means small, poorly fitted or top-dose-only effect, or another doubt; inactive means no such curve, though single readings can be large or run the other way. Potencies beside an inconclusive call are fits to weak or partial responses and may not hold up.

By UniProt entry, the sequences of proteins in these tests, tags left out.
UniProt Q03431, whole entry, looked up: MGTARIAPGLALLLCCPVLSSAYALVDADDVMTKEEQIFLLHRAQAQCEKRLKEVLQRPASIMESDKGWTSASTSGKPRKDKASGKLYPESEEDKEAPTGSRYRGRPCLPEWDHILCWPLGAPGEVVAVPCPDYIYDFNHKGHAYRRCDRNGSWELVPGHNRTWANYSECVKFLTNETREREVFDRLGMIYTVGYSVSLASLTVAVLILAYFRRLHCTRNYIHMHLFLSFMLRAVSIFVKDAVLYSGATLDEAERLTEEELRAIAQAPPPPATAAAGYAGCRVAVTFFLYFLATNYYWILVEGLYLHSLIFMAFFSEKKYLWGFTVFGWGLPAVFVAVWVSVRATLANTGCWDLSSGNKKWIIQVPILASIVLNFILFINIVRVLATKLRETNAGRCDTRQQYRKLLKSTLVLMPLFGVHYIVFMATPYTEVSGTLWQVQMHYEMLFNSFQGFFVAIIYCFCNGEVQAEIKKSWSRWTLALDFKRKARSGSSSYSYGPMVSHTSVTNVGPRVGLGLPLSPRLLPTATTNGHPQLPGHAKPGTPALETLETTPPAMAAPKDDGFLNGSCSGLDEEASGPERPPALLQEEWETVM

target: Parathyroid hormone/parathyroid hormone-related peptide receptor (Homo sapiens) (UniProt Q03431); assay: qHTS for PTHR1 Agonists: Primary Screen; settings: HEK293 GP2 PTHR1 cells, GloSensor cAMP luminescence, 1 h; activation: at 115 µM (top of the series) unless noted; series mostly up to 115 µM; further: nearly all actives have a fitted effect of over 55% in size
Method in brief: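 HEK-293-derived GP2 cells expressing PTHR1 and a GloSensor cAMP reporter, 3,000/well, plated overnight, given luciferin plus IBMX (each 0.5 mM as added) for 1 h at 37 °C, then compound for 1 h at 37 °C. Luminescence was read after 15 min at room temperature.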
Potency means the concentration at half of the fitted maximal effect.

Potency, inconclusive:
O=C(Cn1c(-c2cccs2)cc2cc(Cl)ccc21)N1CCN(c2ccccc2)CC1 89.1 µM [activator, partial curve, poor fit]
COC(=O)CSc1nc(-c2ccc(F)cc2)cc(C(F)(F)F)n1 39.8 µM [activator, partial curve, poor fit]
O=C(Cn1nnc2ccccc2c1=O)NCC1CCC(C(=O)O)CC1 (stereo not drawn) 126 µM [activator, single point]
Cc1ccc(OCCNC(=O)c2ccc3ccccc3n2)cc1 35.5 µM [activator, partial curve, poor fit]
COc1ccc(CC(=O)N/N=C(\C)c2cccc(NC(=O)C3CC3)c2)cc1 112 µM [activator, single point]
CCc1ccc(CNC(=O)c2cc(-c3ccc(Br)s3)nc3ccccc23)cc1 112 µM [activator, single point]
COc1ccc(OCCSc2nc3nc(C)cc(C)n3n2)cc1 5.01 µM [activator, full curve, poor fit]
COc1ccc(Cl)cc1Nc1ncnc2c1c(-c1ccccc1)cn2-c1ccccc1 22.4 µM [activator, partial curve, poor fit]
CCOC(=O)C1=C(CC)Nc2ccccc2N=C1NC(=O)c1cc(S(=O)(=O)N2CCOCC2)ccc1C 89.1 µM [activator, partial curve, poor fit]
COc1ccccc1Cn1ccn(Cc2c(F)cccc2Cl)c(=O)c1=O 7.94 µM [activator, full curve, poor fit]
NS(=O)(=O)c1ccc(NC(=O)CN2CCN(Cc3ccccc3)CC2)cc1 50.1 µM [activator, single point]
Cc1cc(C#N)c(C)n1-c1cc(C(F)(F)F)ccc1N1CCOCC1 3.98 µM [activator, single point]
C=CCN1C(=O)C(C(C)CC)NC1=S (stereo not drawn) 2.51 µM [activator, full curve]
COc1ccc(NS(=O)(=O)c2ccc3c(c2)n(C)c(=O)n3C)cc1 39.8 µM [activator, single point]
O=C(O)CCCN1C(=O)c2cccc3cccc(c23)C1=O 7.08 µM [activator, partial curve, poor fit]
CS(=O)(=O)Nc1nc2ccccc2[nH]1 126 µM [activator, partial curve, poor fit]
CC(C)OCC(O)CN1CCN(C(c2ccccc2)c2ccccc2)CC1 (stereo not drawn) 3.16 µM [activator, full curve]
CC(NC(=O)NNC(N)=S)(C(F)(F)F)C(F)(F)F 158 µM [activator, single point]
CN(C(=O)C1CC1)C1CCS(=O)(=O)C1 (stereo not drawn) 15.8 µM [activator, partial curve, poor fit]

For reference, part of the list above.
Potency, inconclusive:
Cc1cc(C#N)c(C)n1-c1cc(C(F)(F)F)ccc1N1CCOCC1 3.98 µM [activator, single point]
C=CCN1C(=O)C(C(C)CC)NC1=S (stereo not drawn) 2.51 µM [activator, full curve]

Following part:

Potency, inactive:
COc1ccc(C(O)c2ncc(-c3ccccc3Cl)[nH]2)cc1F (stereo not drawn)
O=C(Nc1ccc(Br)cc1Cl)c1cnccn1
CCNC(=O)C1(C)CCCN1C(=O)c1ccc(C#N)cc1 (stereo not drawn)
COc1ccccc1NC(=O)Cn1c(=O)n(Cc2ccco2)c(=O)c2cccnc21
Cc1ccc(CSc2nnnn2C)cc1
O=C(O)c1cc(-c2ccc(/C=C3\NC(=O)N(c4ccc(Cl)cc4)C3=O)o2)ccc1Cl
Cc1oc(-c2ccc(Cl)cc2)nc1CS(=O)CC(=O)NCCN1CCCCCC1 (stereo not drawn)
CCCCn1c(NC(=S)Nc2ccccc2)nc2ccccc21
COc1ccc(OC)c(NC(=O)Nc2nc(C(N)CCc3ccccc3)cs2)c1 (stereo not drawn)
COc1ccc(NS(=O)(=O)c2cc(C)ccc2OC)cc1OC
Cc1ccc2c(c1)C(=O)C(=O)N2Cc1ccc(OC(C)C)cc1
CCOc1ccc(/C=C/C(=O)c2ccccc2)cc1
Cc1ccc(-c2cc(C(=O)Nc3cnn(C(C)C)c3)no2)cc1
CN(C)c1ccc(N2C(=NC(=O)CCc3ccccc3)SC3CS(=O)(=O)CC32)cc1 (stereo not drawn)
Cc1c(C)n(Cc2ccc(F)cc2)c2ccc(C(=O)Nc3ccc(Cl)cc3)cc12
CC1=C(c2ccc(C)c(C)c2)S(=O)(=O)N=C1N1CCC(C(=O)Nc2cccc(F)c2)CC1
CCc1nc2ccc(C(=O)NCCCn3ccnc3)cn2c1N(C)Cc1nccs1
Cc1n[nH]c(=S)n1/N=C/c1cccc(OCc2ccccc2)c1
Cc1ccc(OCC(=O)Oc2c(C)cccc2C)cc1

Potency, active:
CCCc1ccc(-c2cc(NC(=O)CSc3n[nH]c(N)n3)n(-c3ccccc3)n2)cc1 15.8 µM

activation, inconclusive:
Cc1cc(NC(=O)CSc2nnnn2Cc2ccccc2)no1 30.7% [activator] [at 57.5 µM]
CC(C)Nc1nc2c(c(=O)n(C)c(=O)n2C)n1C 31.2% [activator]
CCN(CC)S(=O)(=O)c1ccc(S(=O)(=O)N(CC(=O)Nc2ccccc2)CC2CCCO2)cc1 (stereo not drawn) 27.1% [activator] [at 57.5 µM]
CCCCN(C(=O)c1ccco1)c1c(N)n(CCC)c(=O)[nH]c1=O 41.7% [activator]
N#CNC(=Nc1cccc(C(F)(F)F)c1)SCc1ccc(C(=O)O)cc1 -33.3% [activator]
O=C(N[C@H](CO)c1ccccc1)[C@H]1O[C@@H](n2ccc(=O)[nH]c2=O)[C@H](O)[C@@H]1O 47.5% [activator]
Cc1ccc(OCC(=O)Nc2cc(-c3nc4ccccc4[nH]3)ccc2C)c(C)c1 36.2% [activator]
CNC(=O)Nc1cccc2cccnc12 39.2% [activator]
COc1cc(C(=O)Nc2nc3c(s2)Cc2c(Br)ccc(OC)c2-3)cc(OC)c1OC 32.6% [activator]
